A short description of this data set: 11B- and 19F-NMR binding experiment with arginine methyl ester. Conditions: equimolar mixture with Arg-OMe in DMSO-d6.

Regarding `CC(C)C(=O)Nc1ccc(B(O)O)c(C(F)(F)F)c1` [1c, 4-Isobutyramido-2-(trifluoromethyl)phenylboronic acid], the “Formation of coordinate covalent N–B bond with Arg-OMe (11B- and 19F-NMR chemical shifts)” value is “no significant changes in chemical shifts”. As for `O=C(Nc1ccc(B(O)O)c(F)c1)c1cnc(Cl)cn1` [9a, 4-(5-Chloropyrazine-2-carboxamido)-2-fluorophenylboronic acid], the “Formation of coordinate covalent N–B bond with Arg-OMe (11B- and 19F-NMR chemical shifts)” value is reported as “no significant changes in chemical shifts”.

The values are drawn from publication PMC11428147, “Replacement of nitro function by free boronic acid in non-steroidal anti-androgens” (RSC Medicinal Chemistry, 2024).
